Experimental data taken from patent publication US20080176810A1, “Use of 3, 4', 5-Trihydroxy-Stilbene-3-Beta-D-glucoside in Prepartion of Medicines For Treating and/or Preventing Ischemic Heart Disease” (SHENZHEN NEPTUNUS PHARMACEUTICAL CO., LTD., priority 2004, published 2008).

System: acute myocardial infarction
Test: Acute myocardial infarction in anesthetized dogs, oral (intragastric) administration
Format: in vivo
Experimental: Drugs were administered intragastrically in equal volume at unequal concentration. […] After weighing, animals were anesthetized with 3% pentobarbital sodium iv at the dose of 30 mg/kg. Tracheal intubation was performed and anesthesia respirator (SC-M5, manufactured by Shanghai Medical Instrument Factory) was connected for mechanical ventilation (18 20 per min with tidal volume of 350 550 ml) after thoracotomy. Needle electrodes were punctured into four limbs and under chest skin for monitoring standard limb lead and V3 and ECG. Thoracotomy was performed at the third intercostal space of left sternal border and the fourth rib was removed for full exposure of heart. The pericardium was cut open to make a pericardium hammock. The coronary artery was dissociated from between the second and third branches of left anterior descending coronary artery, underneath which pass through silk threads for two-step ligation. On surface of heart were placed 30-point epicardial leads, to which four limbs were connected through needle-electrodes, which were in turn connected to Powerlab/8s (AD Instruments) with a multichannel switcher to record epicardial electrogram. Animal models of acute myocardial ischemia were prepared with the method of two-step ligation. […] NBT). While other part of myocardium was dyed to blue-black, the Infarct myocardium would not be colorated, which was then cut off and weighted. The results of experiment were shown in x±s and statistics were checked with t-test of non-matched pair. When p<0.05, it was judged that the differences were statistically significant.

Q: With “3,4′,5-trihydroxy-stilbene-3-β-D-glucoside [TSG]” as the substance, how does the Weight of heart (TSG 5 mg/kg oral) read?
A: 79.7 ± 6.68 g

Q: What about the “weight of left heart” value (TSG 5 mg/kg oral) of the same substance?
A: 55.1 ± 4.15 g

Q: And the Weight of heart (TSG 10 mg/kg oral)?
A: 68.8 ± 6.05 g

Q: What about the “weight of left heart” value (TSG 10 mg/kg oral) of the same substance?
A: 48.2 ± 4.84 g

Q: What about the Weight of heart (TSG 20 mg/kg oral) of the same substance?
A: 80.6 ± 13.3 g

Q: What about the “weight of left heart” value (TSG 20 mg/kg oral) of the same substance?
A: 56.2 ± 9.58 g
